Values from PubChem BioAssay AID1224826 (NIAID, 2016).

Test: 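Genes that change LPS-induced Tnf promoter activity in mouse macrophages when knocked down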 (primary screen)
System: RAW264.7 G9 macrophages from mouse bearing reporters for p65 (GFP) and the Tnf promoter (mCherry)
Reagent: siRNA pool against mouse genes, 100 nM
Timing: 16 h of LPS stimulation, after 2 days of siRNA transfection
Treatment: bacterial lipopolysaccharide (Salmonella minnesota R595), 10 ng/ml
Measurement: 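Nuclear mCherry signal of the Tnf promoter reporter measured by imaging after background removal, scaled to each plate median and turned into robust z-scores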
Reading the numbers: Tnf reporter robust z-score: higher = stronger Tnf promoter reporter signal after LPS
Call rule: 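Called active when robust z-score is at most -1.3, matching the median of the Tlr4 knock-down control, or over 3; control wells and wells with under 50 cells never active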
Meaning of the calls: active = Tnf reporter clearly lowered or raised; inactive = no clear change in Tnf reporter
The whole screen tested about 17,000 reagents; shown is a random part of them. In the full data, about 1,110 (6.6%) got an active call. 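Active means lowered or raised reporter signal; replicate intensities are raw and not normalised per plate.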 Further read-outs or replicates are left out here.

Mthfsd (GeneID 234814): Tnf reporter robust z-score = -1.18; fewer than 50 cells in well = enough cells in well; Call = inactive
Clcn6 (GeneID 26372): Tnf reporter robust z-score = 0.59; fewer than 50 cells in well = enough cells in well; Call = inactive
Ncam1 (GeneID 17967): Tnf reporter robust z-score = -0.09; fewer than 50 cells in well = enough cells in well; Call = inactive
Rmc1 (GeneID 76482): Tnf reporter robust z-score = 0.86; fewer than 50 cells in well = enough cells in well; Call = inactive

Limited to “fewer than 50 cells in well”, for 2 of the entries above:
Ncam1 (GeneID 17967): enough cells in well
Rmc1 (GeneID 76482): enough cells in well

The results go on.
Plbd2 (GeneID 71772): Tnf reporter robust z-score = -1.23; fewer than 50 cells in well = enough cells in well; Call = inactive
Commd8 (GeneID 27784): Tnf reporter robust z-score = 2.47; fewer than 50 cells in well = enough cells in well; Call = inactive
Vps52 (GeneID 224705): Tnf reporter robust z-score = 0.61; fewer than 50 cells in well = enough cells in well; Call = inactive
Or52n5 (GeneID 259045): Tnf reporter robust z-score = 0.16; fewer than 50 cells in well = enough cells in well; Call = inactive
Bms1 (GeneID 213895): Tnf reporter robust z-score = 4.35; fewer than 50 cells in well = enough cells in well; Call = active
Nudt3 (GeneID 56409): Tnf reporter robust z-score = 2.32; fewer than 50 cells in well = enough cells in well; Call = inactive
Nmur2 (GeneID 216749): Tnf reporter robust z-score = -0.55; fewer than 50 cells in well = enough cells in well; Call = inactive
Map7d1 (GeneID 245877): Tnf reporter robust z-score = -0.79; fewer than 50 cells in well = enough cells in well; Call = inactive
